Results are given in words; binding and its absence hold for the method and conditions named. For some assays here: Binding seen in cells or lysates may run through a third protein. Some results given as binding are weak or reduced against the parent protein; the word gives no strength. For some assays here: Tags and fused reporters may be left off the sequences shown. Each block holds one binder with its values, some of them ahead of it.
What was measured:
[1] = target: GST-TDP-43(1–251) (human) (UniProt Q13148); assay: pull-down; in vitro GST pull-down: GST fusion proteins of TDP-43 fragments incubated with purified His-PSF proteins of different regions; both purified
[2] = target: TDP-43 of human brain cortex (ALS patient and control) (human (endogenous in brain cortex)) (UniProt Q13148); assay: co-IP; immunoprecipitation of TDP-43 from whole, cytosolic and nuclear fractions of ALS patient and control brain cortex; rabbit IgG control

Amino acid sequences for entries named in this document (tags omitted). A change or cut given only in a name is not applied to a line headed by its entry. Residues count along the entry.
UniProt Q13148: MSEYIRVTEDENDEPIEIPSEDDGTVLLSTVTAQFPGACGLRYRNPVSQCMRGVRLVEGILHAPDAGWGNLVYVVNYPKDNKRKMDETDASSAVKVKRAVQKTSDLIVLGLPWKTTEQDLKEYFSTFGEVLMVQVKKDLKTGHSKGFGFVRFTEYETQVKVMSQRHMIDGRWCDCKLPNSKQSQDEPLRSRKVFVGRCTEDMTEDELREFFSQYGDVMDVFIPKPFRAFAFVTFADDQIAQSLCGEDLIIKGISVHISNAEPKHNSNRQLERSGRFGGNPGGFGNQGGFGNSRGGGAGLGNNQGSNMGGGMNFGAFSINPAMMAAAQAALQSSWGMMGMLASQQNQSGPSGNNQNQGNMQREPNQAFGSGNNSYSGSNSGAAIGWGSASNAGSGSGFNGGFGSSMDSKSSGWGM
GST-TDP-43(1–251): residues 1-251 of Q13148

binding [1]: no binding
B1: His-PSF(444–707) (domain or fragment, UniProt P23246 444-707)
chain: PVIVEPLEQLDDEDGLPEKLAQKNPMYQKERETPPRFAQHGTFEYEYSQRWKSLDEMEKQQREQVEKNMKDAKDKLESEMEDAYHEHQANLLRQDLMRRQEELRRMEELHNQEMQKRKEMQLRQEEERRRREEEMMIRQREMEEQMRRQREESYSRMGYMDPRERDMRMGGGGAMNMGDPYGSGGQKFPPLGGGGGIGYEANPGVPPATMSGSMMGSDMRTERFGQGGAGPVGGQGPRGMGPGTPAGYGRGREEYEGPNKKPRF

binding [2]: binds
B2: NeuN of human brain cortex (protein, UniProt A6NFN3 1-312)
chain: MAQPYPPAQYPPPPQNGIPAEYAPPPPHPTQDYSGQTPVPTEHGMTLYTPAQTHPEQPGSEASTQPIAGTQTVPQTDEAAQTDSQPLHPSDPTEKQQPKRLHVSNIPFRFRDPDLRQMFGQFGKILDVEIIFNERGSKGFGFVTFETSSDADRAREKLNGTIVEGRKIEVNNATARVMTNKKTGNPYTNGWKLNPVVGAVYGPEFYAVTGFPYPTTGTAVAYRGAHLRGRGRAVYNTFRAAPPPPPIPTYGAVVYQDGFYGAEIYGGYAAYRYAQPAAAAAAYSDSYGRVYAAADPYHHTIGPAATYSIGTM
